Test results as given in patent US7214696B2, “Compositions and methods for stabilizing transthyretin and inhibiting transthyretin misfolding” (The Scripps Research Institute, priority 2002, dated 2007).

Experiment: Serum chemistry and side effects in healthy volunteers given diflunisal, Example 3
Assay type: in vivo, human
Details: after diflunisal administration, all groups
Description: Thirty healthy volunteers (25 male, 5 female) were enrolled after informed consent was given. The subjects ranged from 23 to 53 years of age (mean age, 37.6±8.8) with a mean body weight of 78.0±12.1 kg. […] This study design was approved by the Human Subjects Committee of Scripps Clinic, Scripps Green Hospital, The Scripps Research Institute, and The Scripps General Clinical Research Center.

O=C(O)c1cc(-c2ccc(F)cc2F)ccc1O [diflunisal]
serum level of RBP: decreased
serum level of TTR: increased
serum level of total T4: decreased
